Measured values taken from publication doi:10.1101/2021.12.08.471875.

By UniProt entry, the sequences of proteins in these tests, tags left out.
UniProt P28632: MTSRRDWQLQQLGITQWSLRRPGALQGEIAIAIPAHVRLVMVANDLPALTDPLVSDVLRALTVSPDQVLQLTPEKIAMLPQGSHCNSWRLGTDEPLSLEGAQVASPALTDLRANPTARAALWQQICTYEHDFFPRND
UniProt P0A988: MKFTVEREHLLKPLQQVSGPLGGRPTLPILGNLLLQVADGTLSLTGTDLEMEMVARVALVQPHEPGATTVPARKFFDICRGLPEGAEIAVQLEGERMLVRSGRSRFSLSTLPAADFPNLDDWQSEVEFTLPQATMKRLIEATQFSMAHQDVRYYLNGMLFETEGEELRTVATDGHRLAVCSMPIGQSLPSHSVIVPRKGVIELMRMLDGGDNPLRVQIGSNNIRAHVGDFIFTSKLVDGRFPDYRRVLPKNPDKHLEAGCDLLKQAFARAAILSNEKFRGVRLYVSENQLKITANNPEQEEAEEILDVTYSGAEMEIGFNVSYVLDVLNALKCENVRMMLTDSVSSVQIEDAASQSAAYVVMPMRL
UniProt P0AGE0: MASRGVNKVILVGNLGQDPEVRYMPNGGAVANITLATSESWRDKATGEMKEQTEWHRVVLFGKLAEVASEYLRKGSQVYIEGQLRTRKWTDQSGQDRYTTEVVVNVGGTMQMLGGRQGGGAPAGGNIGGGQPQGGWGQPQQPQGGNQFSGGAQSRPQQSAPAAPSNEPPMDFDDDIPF

B1: MrcB (enzyme, UniProt P02919 1-844)
chain: MAGNDREPIGRKGKPTRPVKQKVSRRRYEDDDDYDDYDDYEDEEPMPRKGKGKGKGRKPRGKRGWLWLLLKLAIVFAVLIAIYGVYLDQKIRSRIDGKVWQLPAAVYGRMVNLEPDMTISKNEMVKLLEATQYRQVSKMTRPGEFTVQANSIEMIRRPFDFPDSKEGQVRARLTFDGDHLATIVNMENNRQFGFFRLDPRLITMISSPNGEQRLFVPRSGFPDLLVDTLLATEDRHFYEHDGISLYSIGRAVLANLTAGRTVQGASTLTQQLVKNLFLSSERSYWRKANEAYMALIMDARYSKDRILELYMNEVYLGQSGDNEIRGFPLASLYYFGRPVEELSLDQQALLVGMVKGASIYNPWRNPKLALERRNLVLRLLQQQQIIDQELYDMLSARPLGVQPRGGVISPQPAFMQLVRQELQAKLGDKVKDLSGVKIFTTFDSVAQDAAEKAAVEGIPALKKQRKLSDLETAIVVVDRFSGEVRAMVGGSEPQFAGYNRAMQARRSIGSLAKPATYLTALSQPKIYRLNTWIADAPIALRQPNGQVWSPQNDDRRYSESGRVMLVDALTRSMNVPTVNLGMALGLPAVTETWIKLGVPKDQLHPVPAMLLGALNLTPIEVAQAFQTIASGGNRAPLSALRSVIAEDGKVLYQSFPQAERAVPAQAAYLTLWTMQQVVQRGTGRQLGAKYPNLHLAGKTGTTNNNVDTWFAGIDGSTVTITWVGRDNNQPTKLYGASGAMSIYQRYLANQTPTPLNLVPPEDIADMGVDYDGNFVCSGGMRILPVWTSDPQSLCQQSEMQQQPSGNPFDQSSQPQQQPQQQPAQQEQKDSDGVAGWIKDMFGSN
B2: GalU (enzyme, UniProt P0AEP3 1-302)
chain: MAAINTKVKKAVIPVAGLGTRMLPATKAIPKEMLPLVDKPLIQYVVNECIAAGITEIVLVTHSSKNSIENHFDTSFELEAMLEKRVKRQLLDEVQSICPPHVTIMQVRQGLAKGLGHAVLCAHPVVGDEPVAVILPDVILDEYESDLSQDNLAEMIRRFDETGHSQIMVEPVADVTAYGVVDCKGVELAPGESVPMVGVVEKPKADVAPSNLAIVGRYVLSADIWPLLAKTPPGAGDEIQLTDAIDMLIEKETVEAYHMKGKSHDCGNKLGYMQAFVEYGIRHNTLGTEFKAWLEEEMGIKK
B3: PfkB (enzyme, UniProt P06999 1-309)
chain: MVRIYTLTLAPSLDSATITPQIYPEGKLRCTAPVFEPGGGGINVARAIAHLGGSATAIFPAGGATGEHLVSLLADENVPVATVEAKDWTRQNLHVHVEASGEQYRFVMPGAALNEDEFRQLEEQVLEIESGAILVISGSLPPGVKLEKLTQLISAAQKQGIRCIVDSSGEALSAALAIGNIELVKPNQKELSALVNRELTQPDDVRKAAQEIVNSGKAKRVVVSLGPQGALGVDSENCIQVVPPPVKSQSTVGAGDSMVGAMTLKLAENASLEEMVRFGVAAGSAATLNQGTRLCSHDDTQKIYAYLSR
B4: DnaA (protein, UniProt P03004 1-467)
chain: MSLSLWQQCLARLQDELPATEFSMWIRPLQAELSDNTLALYAPNRFVLDWVRDKYLNNINGLLTSFCGADAPQLRFEVGTKPVTQTPQAAVTSNVAAPAQVAQTQPQRAAPSTRSGWDNVPAPAEPTYRSNVNVKHTFDNFVEGKSNQLARAAARQVADNPGGAYNPLFLYGGTGLGKTHLLHAVGNGIMARKPNAKVVYMHSERFVQDMVKALQNNAIEEFKRYYRSVDALLIDDIQFFANKERSQEEFFHTFNALLEGNQQIILTSDRYPKEINGVEDRLKSRFGWGLTVAIEPPELETRVAILMKKADENDIRLPGEVAFFIAKRLRSNVRELEGALNRVIANANFTGRAITIDFVREALRDLLALQEKLVTIDNIQKTVAEYYKIKVADLLSKRRSRSVARPRQMAMALAKELTNHSLPEIGDAFGGRDHTTVLHACRKIEQLREESHDIKEDFSNLIRTLSS

What was measured:
Experiment in all cases: affinity purification with mass spectrometry
[1] = biological target: T1, NrdB, a ribonuclotide reductase (RNR) subunit (E. coli) (UniProt P69924)
T1 sequence: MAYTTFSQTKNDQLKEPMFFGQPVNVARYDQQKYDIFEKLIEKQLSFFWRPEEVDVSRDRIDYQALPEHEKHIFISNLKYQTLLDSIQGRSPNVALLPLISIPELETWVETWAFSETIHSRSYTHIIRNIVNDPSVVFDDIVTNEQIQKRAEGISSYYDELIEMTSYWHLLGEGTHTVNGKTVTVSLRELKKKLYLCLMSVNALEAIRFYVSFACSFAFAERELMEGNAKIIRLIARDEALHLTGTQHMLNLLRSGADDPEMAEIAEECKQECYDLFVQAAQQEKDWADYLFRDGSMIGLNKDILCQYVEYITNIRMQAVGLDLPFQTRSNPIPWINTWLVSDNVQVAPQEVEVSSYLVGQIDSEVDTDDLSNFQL

HolD (E. coli) = HolD (E. coli) (UniProt P28632)
DnaA (E. coli) = biological target: T2, DnaA (E. coli) (UniProt P03004)
T2 sequence: B4 chain

DiaA (E. coli) = biological target: T3, DiaA (E. coli) (UniProt P66817)
T3 sequence: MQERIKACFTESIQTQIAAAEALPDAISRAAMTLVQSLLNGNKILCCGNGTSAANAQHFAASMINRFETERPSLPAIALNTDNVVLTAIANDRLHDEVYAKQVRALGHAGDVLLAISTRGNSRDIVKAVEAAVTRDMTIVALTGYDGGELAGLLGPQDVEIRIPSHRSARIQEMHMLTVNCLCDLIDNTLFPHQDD

SeqA (E. coli) = biological target: T4, SeqA (E. coli) (UniProt P0AFY8)
T4 sequence: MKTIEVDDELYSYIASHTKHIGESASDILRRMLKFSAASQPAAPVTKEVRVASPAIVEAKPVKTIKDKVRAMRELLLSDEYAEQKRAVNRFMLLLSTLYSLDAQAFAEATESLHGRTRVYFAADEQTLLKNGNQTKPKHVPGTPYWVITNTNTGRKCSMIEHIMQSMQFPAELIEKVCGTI

Molecule | binding [1] | binding (DnaA (E. coli)) | binding (DiaA (E. coli)) | binding (SeqA (E. coli)) | also measured
β sliding clamp of DNA polymerase III (from UniProt P0A988 1-366) | binds | – | – | – | –
Ssb (from UniProt P0AGE0 1-178) | binds | – | – | – | binding (HolD (E. coli)): binds
B1 | – | binds | – | – | –
B2 | – | – | binds | binds | –
B3 | – | binds | – | – | –
B4 | – | – | binds | no binding | –

No constants are given. Whether binding was seen depends on the method and setting. Binding seen in cells or lysates may run through a third protein. These calls come from enrichment with a bait or labelling near it, and not all partners need be listed. For part of these data: No binding means not detected with the bait.
